These are yes or no findings as the source states them, for the method shown. Binding seen in cells or lysates may run through a third protein. These calls come from enrichment with a bait or labelling near it, and not all partners need be listed.
T1: NEPN (bait of the immunoprecipitations from tumor lysates and from the liver metastasis site) (mouse) (UniProt Q9CQ76)
T1 sequence: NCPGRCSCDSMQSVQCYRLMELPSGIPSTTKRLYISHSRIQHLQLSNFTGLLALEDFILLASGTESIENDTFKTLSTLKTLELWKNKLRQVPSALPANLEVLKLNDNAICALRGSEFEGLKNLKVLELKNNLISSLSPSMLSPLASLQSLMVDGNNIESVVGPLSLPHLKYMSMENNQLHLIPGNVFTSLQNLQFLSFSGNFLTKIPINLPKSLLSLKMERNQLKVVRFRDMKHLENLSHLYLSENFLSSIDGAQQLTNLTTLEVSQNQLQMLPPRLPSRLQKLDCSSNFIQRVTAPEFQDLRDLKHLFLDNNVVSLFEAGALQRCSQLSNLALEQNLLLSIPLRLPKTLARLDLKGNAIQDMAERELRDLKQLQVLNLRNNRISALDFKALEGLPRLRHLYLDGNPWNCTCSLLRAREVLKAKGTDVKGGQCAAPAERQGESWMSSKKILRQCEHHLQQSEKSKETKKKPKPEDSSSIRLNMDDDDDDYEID

B1: Tsr1 (protein, UniProt Q5SWD9 1-803)
chain: MAAHRSGPLKQQNKAHKGGRHHGGGSAQRDSKGRVGPKILCKKLKRQLSRIDQRHRASQLRKQKRESVLAEKRQLGSKDGPPHQVLVVPLHSRISLPEAFKLLQNEDLGTVYLSERGSTQSFMLLCPSLKHRWFFTYARPGDLHTLLDMAKVADTILFLLDPLEGWDSTGDYCLSCLFAQGLPTYTLAVQGLSGFPPKKQIDARKKLSKMVEKRFPEDKLLLLDTQQESGMLLRQLANQKQRHLAFRDRRAYLFAHVADFVPSEESDLVGTLKISGYVRGRTLNVNSLLHIVGHGDFQMNQIDAPVDPFPLNPRVIKSQKKPNMAMEVCVTDAAPDMEEDLKVLMKADPDHQESLQTEAIPDPMEGEQTWPTEEELDEADDLLKQRSRVVKKVPKGTSSYQAEWILDEGDESDGEGGEYDDIQHEGFMEEESQDGSGEEEEEECETMTLGESVRDDLYDEKVDAEDEERMLEKYKQERLEEMFPDEMDTPRDVAARIRFQKYRGLKSFRTSPWDPKENLPRDYARIFQFQNFVNTRKRIFKEIEEKEAEGAEVGWYVTLHVSDVPVSVVEYFRQGAPLIAFSLLPYEQKMSVLNMVVSRNPGNTEPVKAKEELIFHCGFRRFRASPLFSQHTAADKHKFQRFLTADAAFVVTVFAPITFPPASVLLFKQRRNGMHSLIATGHLFSVDPDRMVIKRVVLSGHPFKIFTKMAVVRYMFFNREDVMWFKPVELRTKWGRRGHIKEPLGTHGHMKCSFDGKLKSQDTVLMNLYKRVFPKWTYDPYVPEPVPWVKSDISSTVSEVDME
B2: Arg1 (enzyme, UniProt Q61176 1-323)
chain: MSSKPKSLEIIGAPFSKGQPRGGVEKGPAALRKAGLLEKLKETEYDVRDHGDLAFVDVPNDSSFQIVKNPRSVGKANEELAGVVAEVQKNGRVSVVLGGDHSLAVGSISGHARVHPDLCVIWVDAHTDINTPLTTSSGNLHGQPVSFLLKELKGKFPDVPGFSWVTPCISAKDIVYIGLRDVDPGEHYIIKTLGIKYFSMTEVDKLGIGKVMEETFSYLLGRKKRPIHLSFDVDGLDPAFTPATGTPVLGGLSYREGLYITEEIYKTGLLSGLDIMEVNPTLGKTAEEVKSTVNTAVALTLACFGTQREGNHKPGTDYLKPPK
B3: Aldh5a1 (protein, UniProt Q8BWF0 36-523)
chain: ASGPGGLHADLLRGDSFVGGRWLPAPATFPVYDPASGAKLGTVADCGVPEARAAVRAAYDAFNSWKGVSVKERSLLLRKWYDLMIQNKDDLAKIITAESGKPLKEAQGEILYSALFLEWFSEEARRIYGDIIYTSAKDKRGLVLKQPVGVAAIITPWNFPSAMITRKVGAALAAGCTVVVKPAEDTPYSALALAQLANQAGIPAGVYNVIPCSRNKAKEVGEVLCTDPLVSKISFTGSTATGKILLHHAANSVKRVSMELGGLAPFIVFDSANVDQAVAGAMASKFRNAGQTCVCSNRFLVQRGIHDSFVTKFAEAMKKSLRVGNGFEEGTTQGPLINEKAVEKVEKQVNDAVAKGATVVTGGKRHQSGGNFFEPTLLSNVTRDMLCITEETFGPLAPVIKFDKEEEAVAIANAAEVGLAGYFYSQDPAQIWRVAEQLEVGMVGVNEGLISSVECPFGGVKQSGLGREGSKYGIDEYLEVKYVCYGGL
B4: Rasa3 (protein, UniProt Q60790 1-834)
chain: MAVEEEGLRVFQSVRIKIGEAKNLPSYPGPNKMRDCYCTVNLDQEEVFRTKIVEKSLCPFYGEDFYCEIPRSFRHLSFYIFDRDVFRRDSIIGKVAIQKEDLQRYHNRDTWFQLQHVDADSEVQGKVHLELRLSEVITDTGVVCHKLAARIFECQGLPIVNGQCDPYATVTLAGPFRSEAKKTKVKKKTNNPQFDEVFYFEVTRPCSYSKKSHFDFEEEDVDKLEIRVDLWNASNLKFGDEFLGELRLPLKILRHSSSYEAWYFLQPRDNGNKSLKPDDLGSLRLNVVYTEDHVFSSEYYSPLRDLLLKSADVEPVSASAAHILGEVCRDKQEAAIPLVRLLLHYGRVVPFISAIASAEVKRTQDPNTIFRGNSLTSKCIDETMKLAGMHYLHVTLKPTIEEICQSHKSCEIDPVKLKDGENLENNMESLRQYVDRIFTVITKSGVSCPTVMCDIFFSLREAAAKRFQDDLDVRYTAVSSFIFLRFFAPAILSPNLFQLTPHHTDPQTSRTLTLISKTIQTLGSLSKSKSASFKESYMATFYEFFNEQKYADAVKNFLDLISSSGRRDPKSIEQPILLKEGFMIKRAQGRKRFGMKNFKKRWFRLTNHEFTYQKSKGDQPLCNIPIENILAVERLEEESFRMKNMFQVIQPERALYIQANNCVEAKDWIDILTKVSQCNQKRLTVFHPSAYLNGHWLCCRASSDTAAGCTPCTGGLPANIQLDIDGDRETERIYSLFNLYMGKLEKMQEACGSKSVYDGPEQEEYSTFVIDDPQETYKTLKQVIAGVGTLEQEHAQYRRDKFKKTRYGSQEHPIGDKSFQNYIRQQSEISTHSI
B5: Serping1 (protein, UniProt P97290 23-504)
chain: DPEATSHSTQDPLEAQAKSRESFPERDDSWSPPEPTVLPSTWPTTSVAITITNDTMGKVANESFSQHSQPAAQLPTDSPGQPPLNSSSQPSTASDLPTQATTEPFCPEPLAQCSDSDRDSSEAKLSEALTDFSVKLYHAFSATKMAKTNMAFSPFSIASLLTQVLLGAGDSTKSNLESILSYPKDFACVHQALKGFSSKGVTSVSQIFHSPDLAIRDTYVNASQSLYGSSPRVLGPDSAANLELINTWVAENTNHKIRKLLDSLPSDTCLVLLNAVYLSAKWKITFEPKKMMAPFFYKNSMIKVPMMSSVKYPVAQFDDHTLKAKVGQLQLSHNLSFVIVVPVFPKHQLKDVEKALNPTVFKAIMKKLELSKFLPTYLTMPHIKVKSSQDMLSVMEKLEFFDFTYDLNLCGLTEDPDLQVSAMKHETVLELTESGVEAAAASAISFGRSLPIFEVQRPFLFLLWDQQHRFPVFMGRVYDPRG

Target: T1, NEPN (bait of the immunoprecipitations from tumor lysates and from the liver metastasis site) (mouse)
Assay: affinity purification with mass spectrometry

binding, binds:
Gpx4
B1
B2
B3
B4
B5

— paper doi:10.1101/2025.09.29.679137
